# Measured values taken from patent US20130197032A1, “[…] COMPOUNDS FOR THE TREATMENT OF NEUROLOGICAL AND […] DISORDERS” (A. CARLSSON RESEARCH AB, priority 2010, published 2013).
# At least one structure is not confirmed: it was looked up by name or label, or the drawing left a doubt.
# Tested on: reserpine-pretreated mice
# Assay: Motor activity in monoamine-depleted (reserpine-pretreated) mice, video tracking
# Details: haloperidol 1 mg/kg ip, raclopride 20 mg/kg sc, M100907 1 mg/kg ip, SCH23390 0.3 mg/kg sc, SCH39166 0.1-0.9 mg/kg sc
structure (smiles),measurement,value
CN1CCc2cc(Cl)c(O)cc2[C@@H](c2ccccc2)C1 [SCH23390],antagonism of motor stimulation induced by (+)-OSU6162 250 μmol/kg ip,"None of the dopaminergic antagonists, i e SCH23390 (0.3 mg/kg), raclopride (20 mg/kg) or haloperidol (1 mg/kg), could antagonize"
same,antagonism of motor stimulation induced by (−)-OSU6162 250 μmol/kg ip,could not antagonize
